# Laboratory results as given in patent publication US9221875B2, “Amphiphilic peptides for treatment of keratitis” (Agency for Science, Technology and Research, priority 2013, dated 2015).
# Legend:
# [1] = system: 5 microorganisms tested (S. epidermidis, S. aureus, E. coli, P. aeruginosa, C. albicans); assay type: cell-based; settings: rat red blood cells
# Description: Red blood cells suspension incubated with PBS was used as negative control.
# [2] = system: 5 microorganisms tested (S. epidermidis, S. aureus, E. coli, P. aeruginosa, C. albicans); settings: rabbit red blood cells
Structure (SMILES),"SI, selectivity index (HC10 / GM) [1]","SI, selectivity index (HC10 / GM) [2]"
CC[C@H](C)[C@H](N)C(=O)N[C@@H](CCCNC(=N)N)C(=O)N[C@H](C(=O)N[C@@H](CCCCN)C(=O)N[C@H](C(=O)N[C@@H](CCCNC(=N)N)C(=O)N[C@H](C(=O)N[C@@H](CCCCN)C(N)=O)[C@@H](C)CC)[C@@H](C)CC)[C@@H](C)CC [(IRIK)2-NH2] (H-IRIKIRIK-NH2; N-terminus assumed),44.8,85.5
"CC[C@@H](C)[C@@H](N)C(=O)N[C@H](CCCNC(=N)N)C(=O)N[C@@H](C(=O)N[C@H](CCCCN)C(=O)N[C@@H](C(=O)N[C@H](CCCNC(=N)N)C(=O)N[C@@H](C(=O)N[C@H](CCCCN)C(N)=O)[C@H](C)CC)[C@H](C)CC)[C@H](C)CC [IK8-all D, irikirik-NH2] (H-[dI][dR][dI][dK][dI][dR][dI][dK]-NH2; N-terminus assumed)",,407.0
CC[C@H](C)[C@H](N)C(=O)N[C@@H](CCCNC(=N)N)C(=O)N[C@H](C(=O)N[C@@H](CCCCN)C(=O)N[C@H](C(=O)N[C@@H](CCCNC(=N)N)C(=O)N[C@H](C(=O)N[C@@H](CCCCN)C(=O)N[C@H](C(=O)N[C@@H](CCCNC(=N)N)C(=O)N[C@H](C(=O)N[C@@H](CCCCN)C(N)=O)C(C)C)[C@@H](C)CC)C(C)C)[C@@H](C)CC)C(C)C [(IRVK)3-NH2] (H-IRVKIRVKIRVK-NH2; N-terminus assumed),26.4,>>2.6
"CC[C@H](C)[C@H](N)C(=O)N[C@@H](CCCNC(=N)N)C(=O)N[C@H](C(=O)N[C@H](CCCCN)C(=O)N[C@H](C(=O)N[C@H](CCCNC(=N)N)C(=O)N[C@H](C(=O)N[C@@H](CCCCN)C(N)=O)[C@@H](C)CC)[C@@H](C)CC)[C@@H](C)CC [IK8-2D, IRIkIrIK-NH2] (H-IRI[dK]I[dR]IK-NH2; N-terminus assumed)",,128.0

# Like-named read-outs stand apart in the source and are kept apart here. Square brackets hold non-standard residues; d marks the D form. Peptide text beside a SMILES is read from it.
